In patent publication JP2007530675A one finds binding data, which are given here for 3 molecules.

These are yes or no findings as the source states them, for the method shown. Some entries that bind do so weakly or less than the wild type. Where a sequence is shown, tags or fusion partners need not be part of it.

In assay [1] the target is human CS1 extracellular domain (amino acids 1-227)-Fc (human) [IgG part: P01857]. The experiment in a line: sandwich ELISA, captured human CS1-Fc, 2 μg/ml antibody.
Assay [2] deals with hu50/mu50 chimeric CS1-Fc (human/mouse chimera; human) [IgG part: P01857]. As to the kind of experiment: sandwich ELISA, captured chimeric CS1-Fc. In general terms: ELISA stands for enzyme-linked immunosorbent assay.

B1: Luc90 (antibody, V domains shown)
VH: QVQLQQPGAELVRPGASVKLSCKASGYSFTTYWMNWVKQRPGQGLEWIGMIHPSDSETRLNQKFKDKATLTVDKSSSTAYMQLSSPTSEDSAVYYCARSTMIATRAMDYWGQGTSVTVSS
VL: DIVMTQSQKSMSTSVGDRVSITCKASQDVITGVAWYQQKPGQSPKLLIYSASYRYTGVPDRFTGSGSGTDFTFTISNVQAEDLAVYYCQQHYSTPLTFGAGTKLELK
For the molecule B1, the binding result in assay [1] and in assay [2] was “binds” throughout.

B2: Luc69 (antibody, V domains shown)
VH: QVQLQQSGPELVKPGASVKISCKASGYAFSNSWMNWVKQRPGQGLEWIGRIYPGDGDTKSNGKFKGKATLTADKSSRAAYMQLSSLTSVDSAVYFCARSTMIMTGAMDYWGQGTSVTVSS
VL: DIVMTQSHKFMSTSVGDRVIITCKASQDVSTAVAWYQQKPGQSPKLLIYSASFRYTGVPDRFTGSGSGTDFTFTVSSVQAEDLAVYYCQQHYSTPPYTFGGGTKLEIK
For the molecule B2, the binding entry in assay [1] and in assay [2] was “binds” in each case.

B3: Luc34 (antibody, V domains shown)
VH: QVQLQQSGAELARPGASVKLSCKASGYTFTSYWMQWVKQRPGQGLEWIGAIYPGDGDTRYTQKFKGKATLTADKSSSTAYMQLSSLASEDSAVYYCARGKVYYGSNPFAYWGQGTLVTVSA
VL: DIQMTQSSSYLSVSLGGRVTITCKASDHINNWLAWYQQKPGNAPRLLISGATSLETGVPSRFSGSGSGKDYTLSITSLQTEDVATYYCQQYWSTPWTFGGGTKLEIK
In the case of B3, the binding result in assay [1] and in assay [2] was “binds” throughout.
